# Test results published in PubChem BioAssay AID2685 (National Center for Advancing Translational Sciences (NCATS), 2010).
# The campaign covered roughly 320,000 compounds. About 2,100 (0.66%) were called active. Calls come from the whole dose curve; as a rule, active = well fitted inhibition curve with a large enough effect in the signal ratio, with a control signal flat (not every such curve was filed as active); inconclusive = small, poorly fitted or top-dose-only effect, or effect the other way, or a change in a side signal; inactive = flat fitted curve, though single readings scatter; the % refers to the signal ratio. Inconclusive results, whose numbers are uncertain, are shown. A potency beside an inconclusive call is a rough fit, not a confirmed value.
# Assay: qHTS Assay for Lipid Storage Modulators in Drosophila S3 Cells
# Conditions: BODIPY lipid droplet fluorescence, 18-24 h, cells fed with added oleic acid; lipid storage change, negative = inhibition: at 46.1 µM (top of the series) unless noted
# Procedure, shortened: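 Drosophila S3 cells loaded with oleic acid (400 uM, as added) and compounds at several concentrations; lipid droplets imaged by 488-nm laser-scanning cytometry, 500–530 nm intensity and object ratio to cell channel. Percent activity normalized to 20 uM Triacsin C.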
# % is set by controls: 0 for no effect and ±100 for the full control effect; potency is the fitted concentration of half-maximal effect.
Compound,"lipid storage change, negative = inhibition",Potency
COc1ccccc1CN(C)C(=O)c1cc(-c2cc(OC)c(OC)c(OC)c2)nc2ccccc12,inconclusive: -16.7%,
Nc1nonc1C(=O)N/N=C/c1cccc([N+](=O)[O-])c1,inconclusive: 33.5%,
COc1ccc(CSCCNC(=S)Nc2ccccc2)cc1Cl,inconclusive: 53.7%,
CN1CCN(C(=O)C2=C[C@H](C(C)(C)C)C[C@H](OCCCCO)O2)CC1,inconclusive: -23.4%,
N#CCCN(CCC#N)S(=O)(=O)c1ccc(C(=O)Nc2nc(-c3ccccc3)c(C(=O)c3ccccc3)s2)cc1,inconclusive: 36.2% [activator],
O=[N+]([O-])c1ccn(-c2nc(-c3cccs3)cc(C(F)(F)F)n2)n1,inconclusive: 9.71%,
Cc1cc(Cl)ccc1OCC(=O)N/N=C/c1ccncc1,,"inconclusive: 0.731 µM [falling, single point]"
O=C(Oc1ccc2c(=O)c(Oc3ccc4ccccc4c3)coc2c1)c1cccnc1,inconclusive: -15.1%,
CC(C)N(Cc1ccccc1)C(=O)CC(=O)N(Cc1ccccc1)C(C)C,,"inconclusive: 2.31 µM [activator, single point]"
COc1ccc(CNC(=O)Cc2nn(C)c(=O)c3ccccc23)cc1,,"inconclusive: 14.6 µM [falling, partial curve]"
Nc1nc(Cl)cc(Oc2ccccc2F)n1,inconclusive: 10.2%,
CCS(=O)(=O)N1CCC(NC(C)=O)(c2ccccc2)CC1,inconclusive: -13.6%,
COC(=O)c1ccc(-n2nnnc2SCC(=O)Nc2ccccc2C(=O)OC)cc1,inconclusive: -60.5%,
CCNC(=O)C1CCCN1S(=O)(=O)c1ccc(OC)cc1 (stereo unspecified),,"inconclusive: 29.1 µM [cytotoxic, single point]"
O=C(COC(=O)CN1C(=O)c2ccccc2C1=O)NC1CCCC1,inconclusive: -32.2%,
CCCc1cc(C(N)=S)ccn1,inconclusive: -0.0027%,
CC1CCCN(S(=O)(=O)c2ccc3c(c2)C(C)(C)C(=O)N3C)C1 (stereo unspecified),,"inconclusive: 0.58 µM [activator, single point]"
COc1cccc(CNC(=O)c2ccc(C3SCCS3)cc2)c1,,"inconclusive: 18.4 µM [falling, single point]"
Cc1ccc(C)c(-n2c(-c3ccc4c(c3)OCO4)n[nH]c2=S)c1,inconclusive: 5.46%,
CC(C)c1ccc(NC(=O)c2cccnc2)cc1,inconclusive: 36.6%,
Cc1ccccc1N(C(=O)c1snc(C(N)=O)c1N)C(C(=O)NCC1CCCO1)c1ccc(N(C)C)cc1 (stereo unspecified),inconclusive: -30.8%,

# Pulled by structure from the list above, two records:
Compound,"lipid storage change, negative = inhibition",Potency
CN1CCN(C(=O)C2=C[C@H](C(C)(C)C)C[C@H](OCCCCO)O2)CC1,inconclusive: -23.4%,
Cc1ccc(C)c(-n2c(-c3ccc4c(c3)OCO4)n[nH]c2=S)c1,inconclusive: 5.46%,
